The values that follow come from article PMC7519114.

The chains behind the UniProt entries cited, without tags or fusion partners.
UniProt P56485: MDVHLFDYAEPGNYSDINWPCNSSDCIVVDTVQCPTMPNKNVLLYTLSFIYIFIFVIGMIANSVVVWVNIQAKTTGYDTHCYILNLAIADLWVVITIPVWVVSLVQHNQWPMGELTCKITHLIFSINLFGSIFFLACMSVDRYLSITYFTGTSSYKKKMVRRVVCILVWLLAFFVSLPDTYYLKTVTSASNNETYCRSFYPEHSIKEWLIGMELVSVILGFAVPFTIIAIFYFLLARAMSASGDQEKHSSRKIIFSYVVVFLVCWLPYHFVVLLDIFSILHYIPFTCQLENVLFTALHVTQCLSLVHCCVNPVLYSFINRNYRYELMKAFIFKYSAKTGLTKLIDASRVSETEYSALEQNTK
UniProt P25106: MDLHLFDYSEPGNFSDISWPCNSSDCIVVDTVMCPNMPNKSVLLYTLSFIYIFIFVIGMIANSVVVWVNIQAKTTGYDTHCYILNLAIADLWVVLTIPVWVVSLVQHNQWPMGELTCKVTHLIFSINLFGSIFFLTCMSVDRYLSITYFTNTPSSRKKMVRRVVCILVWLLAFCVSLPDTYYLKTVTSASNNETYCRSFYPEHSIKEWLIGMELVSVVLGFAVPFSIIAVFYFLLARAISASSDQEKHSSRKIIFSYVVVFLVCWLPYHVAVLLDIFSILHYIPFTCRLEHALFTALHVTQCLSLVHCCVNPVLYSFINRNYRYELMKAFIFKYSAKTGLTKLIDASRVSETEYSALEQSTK
UniProt P17302: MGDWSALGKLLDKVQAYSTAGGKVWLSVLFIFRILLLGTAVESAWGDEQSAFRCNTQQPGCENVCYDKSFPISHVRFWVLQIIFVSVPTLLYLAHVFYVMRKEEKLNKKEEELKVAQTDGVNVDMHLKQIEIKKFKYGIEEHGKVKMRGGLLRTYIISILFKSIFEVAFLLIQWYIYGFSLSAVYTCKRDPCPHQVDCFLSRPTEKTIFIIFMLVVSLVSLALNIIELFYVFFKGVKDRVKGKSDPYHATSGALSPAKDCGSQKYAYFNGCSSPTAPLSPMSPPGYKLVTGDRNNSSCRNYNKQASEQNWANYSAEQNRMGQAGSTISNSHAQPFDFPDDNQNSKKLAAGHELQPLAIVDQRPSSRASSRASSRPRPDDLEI
UniProt P23242: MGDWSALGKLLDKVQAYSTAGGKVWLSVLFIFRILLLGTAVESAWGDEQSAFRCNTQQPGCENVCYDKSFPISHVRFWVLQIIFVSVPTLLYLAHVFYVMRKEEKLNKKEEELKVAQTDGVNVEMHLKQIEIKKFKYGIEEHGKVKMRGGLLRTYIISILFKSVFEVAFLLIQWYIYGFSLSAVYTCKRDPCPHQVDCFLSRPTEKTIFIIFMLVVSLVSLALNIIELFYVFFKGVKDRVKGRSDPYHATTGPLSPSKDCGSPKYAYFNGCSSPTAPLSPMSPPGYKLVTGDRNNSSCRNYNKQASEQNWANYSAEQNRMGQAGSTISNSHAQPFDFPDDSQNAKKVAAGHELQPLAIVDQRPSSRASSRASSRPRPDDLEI
UniProt P08754: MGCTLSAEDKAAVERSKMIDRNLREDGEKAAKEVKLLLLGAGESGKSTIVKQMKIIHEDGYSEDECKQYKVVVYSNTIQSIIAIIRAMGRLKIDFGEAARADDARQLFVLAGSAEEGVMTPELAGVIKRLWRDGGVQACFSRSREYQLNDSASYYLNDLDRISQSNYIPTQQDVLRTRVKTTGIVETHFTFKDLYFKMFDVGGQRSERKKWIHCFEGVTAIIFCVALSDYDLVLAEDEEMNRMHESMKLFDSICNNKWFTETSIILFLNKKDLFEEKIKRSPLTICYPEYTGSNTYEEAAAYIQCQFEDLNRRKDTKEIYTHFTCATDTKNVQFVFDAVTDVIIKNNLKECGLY
UniProt P32121: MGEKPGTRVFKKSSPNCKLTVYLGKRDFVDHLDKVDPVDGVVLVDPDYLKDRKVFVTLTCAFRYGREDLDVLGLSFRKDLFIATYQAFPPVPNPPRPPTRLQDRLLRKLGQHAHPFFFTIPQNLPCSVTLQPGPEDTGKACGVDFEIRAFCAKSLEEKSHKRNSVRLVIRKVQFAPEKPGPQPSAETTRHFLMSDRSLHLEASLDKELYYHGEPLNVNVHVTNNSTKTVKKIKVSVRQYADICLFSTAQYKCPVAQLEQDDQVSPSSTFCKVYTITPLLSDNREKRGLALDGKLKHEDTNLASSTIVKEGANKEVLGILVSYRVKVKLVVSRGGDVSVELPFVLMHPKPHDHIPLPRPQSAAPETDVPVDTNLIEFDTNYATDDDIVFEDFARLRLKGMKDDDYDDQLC

For assay [1], the target named is HA-ACKR3 of HA-ACKR3 knock-in mice (mouse (endogenous in HA-ACKR3 knock-in embryonic brain)) (UniProt P56485). Nature of the assay: co-IP; HA-immunoprecipitation from E17 embryonic brains of WT or HA-ACKR3 knock-in mice; lysis in 150 mM NaCl, 5 mM EDTA, 50 mM Tris-HCl pH 7.4, DDM 1.5%; anti-HA magnetic beads overnight at 4 °C; Western blot. For orientation: A western blot detects proteins with antibodies after separation by electrophoresis.

Assay [2] has as its target ACKR3-NLuc (not stated (human or mouse cDNA cloned)) (UniProt P25106). Nature of the assay: FRET or BRET; living HEK293T cells co-expressing an NLuc- or RLuc-tagged donor and a YFP-tagged acceptor; coelenterazine 5 μM, 37 °C; saturation BRET (constant donor, increasing acceptor) and kinetics or concentration-response with vehicle, CXCL12 or CXCL11. Background: BRET reads energy transfer from a luciferase to a nearby fluorophore.

Assay [3] deals with HA-tagged atypical chemokine receptor 3 (HA-ACKR3) (not stated (human or mouse cDNA cloned)) (UniProt P25106). Nature of the assay: co-IP; HEK293T cells expressing HA-ACKR3 or HA-CXCR4 (with FLAG-tagged β-arrestin2 where named); lysis in 1% DDM; 1.5 mg protein on agarose-conjugated anti-HA antibody overnight at 4 °C; Western blot; cells challenged with vehicle, CXCL12 (10 nM) or CXCL11 (100 nM) for 30 min.

For assay [4], the target named is ACKR3-YFP (not stated (human or mouse cDNA cloned)) (UniProt P25106). The assay is described as follows: FRET or BRET; living HEK293T cells co-expressing an NLuc- or RLuc-tagged donor and a YFP-tagged acceptor; coelenterazine 5 μM, 37 °C; saturation BRET (constant donor, increasing acceptor) and kinetics or concentration-response with vehicle, CXCL12 or CXCL11.
For assay [5], the target named is Cx43-YFP (human) (UniProt P17302). Nature of the assay: FRET or BRET; living HEK293T cells expressing YFP-tagged Cx43 and RLuc-tagged β-arrestin2 in the presence of ACKR3, with or without CXCL12 stimulation.

Results are given in words; binding and its absence hold for the method and conditions named. In cells and extracts the contact can be indirect. Some binding calls cover weakened binding; strength is not graded here.

In the case of “Connexin 43 (Cx43) of embryonic mouse brain (from UniProt P23242 1-382)”, the binding result in assay [1] is “binds”. Take Cx43-YFP (from UniProt P17302 1-382): in assay [2], the binding result was “binds”.

With “Gap Junction Alpha-1 protein (GJA1, Connexin 43, Cx43) (from UniProt P17302 1-382)”, the binding result in assay [3] is “binds”. For the substance Gαi3-RLuc (from UniProt P08754 1-354), the binding entry in assay [4] is reported as “binds”. Turning to “β-arrestin2-RLuc (from UniProt P32121 1-409)”, the binding result in assay [5] was “no binding”.
